The experiment addresses rat EED-V5-His (pcDNA3.1-rEED-V5-His) (rat) (UniProt B5DF02). The experiment can be described thus: co-IP; HEK293T cells transfected with pcDNA3.1-rEED-V5-His, LVI-Flag-HA-mSirt1 or both; lysis in 25 mM Tris pH 7.4, 150 mM NaCl, 1 mM EDTA, 1 mM EGTA, 1% Triton X-100; immunoprecipitation with V5 or HA antibody and protein A agarose overnight at 4 °C; blots probed for V5 or HA (reciprocal).

Drawing on PMC6179991, this text covers binding for 1 molecule.

These are yes or no findings as the source states them, for the method shown. Binding seen in cells or lysates may run through a third protein. Binding can be weak; no strength is given. Tags and fused reporters may be left off the sequences shown.

B1: Mouse Sirt1-FLAG-HA (Sirtuin 1) (enzyme, UniProt Q923E4-1 1-737)
chain: MADEVALALQAAGSPSAAAAMEAASQPADEPLRKRPRRDGPGLGRSPGEPSAAVAPAAAGCEAASAAAPAALWREAAGAAASAEREAPATAVAGDGDNGSGLRREPRAADDFDDDEGEEEDEAAAAAAAAAIGYRDNLLLTDGLLTNGFHSCESDDDDRTSHASSSDWTPRPRIGPYTFVQQHLMIGTDPRTILKDLLPETIPPPELDDMTLWQIVINILSEPPKRKKRKDINTIEDAVKLLQECKKIIVLTGAGVSVSCGIPDFRSRDGIYARLAVDFPDLPDPQAMFDIEYFRKDPRPFFKFAKEIYPGQFQPSLCHKFIALSDKEGKLLRNYTQNIDTLEQVAGIQRILQCHGSFATASCLICKYKVDCEAVRGDIFNQVVPRCPRCPADEPLAIMKPEIVFFGENLPEQFHRAMKYDKDEVDLLIVIGSSLKVRPVALIPSSIPHEVPQILINREPLPHLHFDVELLGDCDVIINELCHRLGGEYAKLCCNPVKLSEITEKPPRPQKELVHLSELPPTPLHISEDSSSPERTVPQDSSVIATLVDQATNNNVNDLEVSESSCVEEKPQEVQTSRNVENINVENPDFKAVGSSTADKNERTSVAETVRKCWPNRLAKEQISKRLEGNQYLFVPPNRYIFHGAEVYSDSEDDVLSSSSCGSNSDSGTCQSPSLEEPLEDESEIEEFYNGLEDDTERPECAGGSGFGADGGDQEVVNEAIATRQELTDVNYPSDKS
For the molecule B1, the binding entry is reported as “binds”.
